Laboratory results from patent US20060165732A1, “Fungal antigens and eosinophil activity” (priority 2002, published 2006).
At least one structure is not confirmed: it was looked up by name or label, or the drawing left a doubt.

System: PBMC
Test: Effect of fluticasone propionate on IL-5 production by PBMC (ELISA)
Format: cell-based, human
Conditions: Con A 5 μg/mL
Description: PBMC were isolated from 30 mL of blood drawn from patients with chronic sinusitis, bronchial asthma, or normal individuals by density centrifugation using Histopaque®. Cells were then suspended in RPMI 1640 medium supplemented with 10% fetal bovine serum at 2×10^6 cells/mL and incubated for 3 days at 37° C. in 96-well tissue culture plates with medium alone, 25 μg/mL Alternaria cellular extract, 25 μg/mL Dermatophagoides Pteronyssinus (Der P; Greer Laboratories; a mite allergen), or 5 μg/mL Concanavalin A. Since Concanavalin A is a very potent inducer, supernatants of PBMC were diluted 50-fold before they were analyzed for the presence of IL-5.
To examine the effects of glucocorticoids on the eosinophilic response, fluticasone propionate (10^−10 M to 10^−6 M, GlaxoSmithKline) was added to the culture. After incubation, cell-free supernatants were collected and analyzed for IL-5 concentrations using an ELISA assay (Endogen, Inc.). In the experiments with Concanavalin A, the amount of IL-5 determined by ELISA was multiplied by 50 to account for the dilution factor.

CCC(=O)O[C@]1(C(=O)SCF)[C@H](C)C[C@H]2[C@@H]3C[C@H](F)C4=CC(=O)C=C[C@]4(C)[C@@]3(F)[C@@H](O)C[C@@]21C [fluticasone propionate] was tested, and the “visual ConA” value (fluticasone 10^−7 M) was “+”, the “visual ConA” value (fluticasone 10^−8 M) was “+” and the “visual ConA” value (fluticasone 10^−9 M) was “+”. For the same compound, the “visual ConA” value (fluticasone 10^−10 M) was “+++”.
